Measurements from article PMC4591814.
No constants are given. Whether binding was seen depends on the method and setting. Binding seen in cells or lysates may run through a third protein. Some results given as binding are weak or reduced against the parent protein; the word gives no strength. Tags and fused reporters may be left off the sequences shown.

The chains behind the UniProt entries cited, without tags or fusion partners.
UniProt P38398: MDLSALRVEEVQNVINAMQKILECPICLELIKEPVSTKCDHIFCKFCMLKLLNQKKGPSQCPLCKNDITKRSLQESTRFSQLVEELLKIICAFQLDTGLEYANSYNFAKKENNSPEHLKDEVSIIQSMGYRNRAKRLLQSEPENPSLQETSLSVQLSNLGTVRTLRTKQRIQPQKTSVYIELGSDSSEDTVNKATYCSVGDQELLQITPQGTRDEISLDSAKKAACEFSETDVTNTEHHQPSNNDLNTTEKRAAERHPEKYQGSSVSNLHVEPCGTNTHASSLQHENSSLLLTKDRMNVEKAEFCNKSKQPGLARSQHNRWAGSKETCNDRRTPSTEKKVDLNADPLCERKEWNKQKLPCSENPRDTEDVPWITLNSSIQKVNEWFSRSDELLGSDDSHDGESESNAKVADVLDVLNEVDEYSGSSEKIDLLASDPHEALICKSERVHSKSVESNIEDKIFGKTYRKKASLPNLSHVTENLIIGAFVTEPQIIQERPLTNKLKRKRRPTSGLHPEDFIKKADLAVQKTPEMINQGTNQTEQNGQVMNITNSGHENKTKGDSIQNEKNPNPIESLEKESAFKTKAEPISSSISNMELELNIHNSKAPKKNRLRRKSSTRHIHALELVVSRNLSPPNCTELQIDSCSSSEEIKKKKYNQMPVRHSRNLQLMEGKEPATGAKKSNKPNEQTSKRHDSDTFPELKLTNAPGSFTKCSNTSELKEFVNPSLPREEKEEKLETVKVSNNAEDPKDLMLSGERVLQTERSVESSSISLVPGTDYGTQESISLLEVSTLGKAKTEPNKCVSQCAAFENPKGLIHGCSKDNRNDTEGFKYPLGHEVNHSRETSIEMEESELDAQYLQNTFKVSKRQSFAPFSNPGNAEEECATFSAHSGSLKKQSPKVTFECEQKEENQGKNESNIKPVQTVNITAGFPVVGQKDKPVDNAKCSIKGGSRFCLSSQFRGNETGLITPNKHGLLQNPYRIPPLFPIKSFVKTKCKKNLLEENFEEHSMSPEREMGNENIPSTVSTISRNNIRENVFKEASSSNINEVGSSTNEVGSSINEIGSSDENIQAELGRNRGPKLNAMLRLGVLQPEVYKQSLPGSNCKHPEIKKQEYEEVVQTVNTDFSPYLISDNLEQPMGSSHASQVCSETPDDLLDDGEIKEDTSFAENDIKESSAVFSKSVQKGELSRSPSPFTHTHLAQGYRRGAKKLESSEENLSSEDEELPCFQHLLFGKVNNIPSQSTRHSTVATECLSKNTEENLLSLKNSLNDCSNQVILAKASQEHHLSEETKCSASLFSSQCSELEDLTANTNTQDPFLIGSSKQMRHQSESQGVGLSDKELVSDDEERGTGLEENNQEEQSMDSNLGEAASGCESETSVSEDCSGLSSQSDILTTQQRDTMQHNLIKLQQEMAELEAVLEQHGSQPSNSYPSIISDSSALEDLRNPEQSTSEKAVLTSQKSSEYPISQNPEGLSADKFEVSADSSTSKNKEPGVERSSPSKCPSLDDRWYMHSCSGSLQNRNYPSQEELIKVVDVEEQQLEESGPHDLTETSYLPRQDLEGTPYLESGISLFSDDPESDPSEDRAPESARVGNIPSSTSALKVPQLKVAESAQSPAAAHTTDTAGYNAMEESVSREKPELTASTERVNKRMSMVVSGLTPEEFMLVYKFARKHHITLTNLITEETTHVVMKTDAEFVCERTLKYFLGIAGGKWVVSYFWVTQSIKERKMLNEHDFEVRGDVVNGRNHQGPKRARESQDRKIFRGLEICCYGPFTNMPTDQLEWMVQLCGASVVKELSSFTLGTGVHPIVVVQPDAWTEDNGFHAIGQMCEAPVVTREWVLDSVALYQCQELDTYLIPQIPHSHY
UniProt Q9BXW9: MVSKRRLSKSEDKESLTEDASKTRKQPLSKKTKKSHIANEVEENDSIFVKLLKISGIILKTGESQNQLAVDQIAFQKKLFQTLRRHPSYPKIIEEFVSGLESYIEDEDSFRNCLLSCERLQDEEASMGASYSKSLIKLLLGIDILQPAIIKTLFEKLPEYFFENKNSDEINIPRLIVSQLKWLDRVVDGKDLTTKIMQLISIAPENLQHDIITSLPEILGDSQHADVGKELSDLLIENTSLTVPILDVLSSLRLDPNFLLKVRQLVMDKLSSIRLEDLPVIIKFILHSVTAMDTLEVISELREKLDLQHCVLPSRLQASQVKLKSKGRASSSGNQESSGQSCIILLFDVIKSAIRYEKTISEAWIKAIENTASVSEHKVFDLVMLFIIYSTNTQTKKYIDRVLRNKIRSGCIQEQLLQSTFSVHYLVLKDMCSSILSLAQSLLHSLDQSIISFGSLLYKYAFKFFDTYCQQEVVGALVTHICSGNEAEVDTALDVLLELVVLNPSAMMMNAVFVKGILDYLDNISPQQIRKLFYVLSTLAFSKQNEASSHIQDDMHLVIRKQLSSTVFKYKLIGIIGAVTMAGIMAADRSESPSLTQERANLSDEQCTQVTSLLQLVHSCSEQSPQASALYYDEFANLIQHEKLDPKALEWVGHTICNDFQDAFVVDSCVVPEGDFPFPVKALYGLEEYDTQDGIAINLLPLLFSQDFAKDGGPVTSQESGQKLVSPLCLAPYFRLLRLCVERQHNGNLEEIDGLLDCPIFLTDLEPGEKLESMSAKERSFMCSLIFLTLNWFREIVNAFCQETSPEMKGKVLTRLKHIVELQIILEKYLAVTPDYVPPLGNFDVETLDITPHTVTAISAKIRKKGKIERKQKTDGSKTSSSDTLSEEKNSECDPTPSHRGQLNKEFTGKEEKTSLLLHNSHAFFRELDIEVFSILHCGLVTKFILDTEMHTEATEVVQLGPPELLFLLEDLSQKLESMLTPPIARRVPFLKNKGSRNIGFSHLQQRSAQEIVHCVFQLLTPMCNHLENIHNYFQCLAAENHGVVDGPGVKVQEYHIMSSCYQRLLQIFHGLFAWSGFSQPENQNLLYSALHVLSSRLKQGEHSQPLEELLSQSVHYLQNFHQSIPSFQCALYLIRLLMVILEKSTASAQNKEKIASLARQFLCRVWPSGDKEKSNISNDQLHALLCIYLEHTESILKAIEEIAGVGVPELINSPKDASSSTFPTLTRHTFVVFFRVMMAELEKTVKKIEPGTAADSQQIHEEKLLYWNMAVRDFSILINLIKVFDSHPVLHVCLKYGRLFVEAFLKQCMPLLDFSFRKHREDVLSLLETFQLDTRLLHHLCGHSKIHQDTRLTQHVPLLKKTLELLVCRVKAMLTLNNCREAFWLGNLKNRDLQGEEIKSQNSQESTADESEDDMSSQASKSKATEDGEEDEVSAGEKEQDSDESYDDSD

How the values were obtained:
[1] = target: T1, FLAG and HA epitope-tagged human DNA polymerase ν (POLN) (human) (UniProt Q7Z5Q5); assay: co-IP; FLAG-HA-POLN complex immunopurified (anti-FLAG, then anti-HA) from HeLa S3 nuclear extract; immunoblotting with specific antibodies
T1 sequence: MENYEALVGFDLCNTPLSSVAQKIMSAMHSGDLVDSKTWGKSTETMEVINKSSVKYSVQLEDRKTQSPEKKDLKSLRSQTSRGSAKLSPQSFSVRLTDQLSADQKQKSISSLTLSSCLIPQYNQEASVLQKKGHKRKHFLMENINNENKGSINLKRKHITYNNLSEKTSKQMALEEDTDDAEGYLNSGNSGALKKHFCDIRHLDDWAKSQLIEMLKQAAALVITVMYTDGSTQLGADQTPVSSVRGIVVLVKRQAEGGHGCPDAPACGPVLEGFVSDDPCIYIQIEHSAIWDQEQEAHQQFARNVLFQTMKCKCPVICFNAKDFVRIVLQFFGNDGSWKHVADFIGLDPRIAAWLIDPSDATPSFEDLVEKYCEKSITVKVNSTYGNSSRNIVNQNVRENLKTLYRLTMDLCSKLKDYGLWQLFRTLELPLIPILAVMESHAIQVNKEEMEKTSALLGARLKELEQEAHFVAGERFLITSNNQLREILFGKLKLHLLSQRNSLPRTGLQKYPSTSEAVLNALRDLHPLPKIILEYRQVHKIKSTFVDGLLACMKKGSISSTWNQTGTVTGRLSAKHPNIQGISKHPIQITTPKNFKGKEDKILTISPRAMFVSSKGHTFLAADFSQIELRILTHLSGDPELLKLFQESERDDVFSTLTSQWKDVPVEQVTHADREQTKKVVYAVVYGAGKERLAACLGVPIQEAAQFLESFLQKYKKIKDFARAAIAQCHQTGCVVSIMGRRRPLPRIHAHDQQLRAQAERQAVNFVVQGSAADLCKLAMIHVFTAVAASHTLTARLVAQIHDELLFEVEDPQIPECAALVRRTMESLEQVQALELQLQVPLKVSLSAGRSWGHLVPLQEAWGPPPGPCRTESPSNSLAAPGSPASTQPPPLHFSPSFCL

[2] = target: T2, FLAG and HA epitope-tagged FANCL (UniProt Q9NW38); assay: co-IP; FLAG-HA-FANCL complex immunopurified (anti-FLAG, then anti-HA) from nuclear extracts of HeLa S3 cells with or without 3 mM HU for 24 h; immunoblotting with specific antibodies
T2 sequence: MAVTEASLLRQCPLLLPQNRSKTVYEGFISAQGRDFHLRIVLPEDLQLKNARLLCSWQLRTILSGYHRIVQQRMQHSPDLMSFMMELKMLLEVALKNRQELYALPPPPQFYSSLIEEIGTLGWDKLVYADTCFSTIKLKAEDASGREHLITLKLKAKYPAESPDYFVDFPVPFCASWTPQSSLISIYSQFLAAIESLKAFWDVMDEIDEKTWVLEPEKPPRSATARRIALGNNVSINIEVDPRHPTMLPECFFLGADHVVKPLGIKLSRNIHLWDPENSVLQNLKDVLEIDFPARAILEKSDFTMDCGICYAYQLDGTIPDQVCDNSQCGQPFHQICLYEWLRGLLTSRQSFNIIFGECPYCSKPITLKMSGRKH

[3] = target: T3, FLAG-HA epitope-tagged FANCJ (human) (UniProt Q9BX63); assay: co-IP; V5-POLN coexpressed with FLAG-HA-tagged BRCA1 or FANCJ in 293T cells; whole-cell extract sonicated, incubated in the presence of benzonase; sequential anti-FLAG and anti-HA immunoprecipitation; POLN detected with anti-V5
T3 sequence: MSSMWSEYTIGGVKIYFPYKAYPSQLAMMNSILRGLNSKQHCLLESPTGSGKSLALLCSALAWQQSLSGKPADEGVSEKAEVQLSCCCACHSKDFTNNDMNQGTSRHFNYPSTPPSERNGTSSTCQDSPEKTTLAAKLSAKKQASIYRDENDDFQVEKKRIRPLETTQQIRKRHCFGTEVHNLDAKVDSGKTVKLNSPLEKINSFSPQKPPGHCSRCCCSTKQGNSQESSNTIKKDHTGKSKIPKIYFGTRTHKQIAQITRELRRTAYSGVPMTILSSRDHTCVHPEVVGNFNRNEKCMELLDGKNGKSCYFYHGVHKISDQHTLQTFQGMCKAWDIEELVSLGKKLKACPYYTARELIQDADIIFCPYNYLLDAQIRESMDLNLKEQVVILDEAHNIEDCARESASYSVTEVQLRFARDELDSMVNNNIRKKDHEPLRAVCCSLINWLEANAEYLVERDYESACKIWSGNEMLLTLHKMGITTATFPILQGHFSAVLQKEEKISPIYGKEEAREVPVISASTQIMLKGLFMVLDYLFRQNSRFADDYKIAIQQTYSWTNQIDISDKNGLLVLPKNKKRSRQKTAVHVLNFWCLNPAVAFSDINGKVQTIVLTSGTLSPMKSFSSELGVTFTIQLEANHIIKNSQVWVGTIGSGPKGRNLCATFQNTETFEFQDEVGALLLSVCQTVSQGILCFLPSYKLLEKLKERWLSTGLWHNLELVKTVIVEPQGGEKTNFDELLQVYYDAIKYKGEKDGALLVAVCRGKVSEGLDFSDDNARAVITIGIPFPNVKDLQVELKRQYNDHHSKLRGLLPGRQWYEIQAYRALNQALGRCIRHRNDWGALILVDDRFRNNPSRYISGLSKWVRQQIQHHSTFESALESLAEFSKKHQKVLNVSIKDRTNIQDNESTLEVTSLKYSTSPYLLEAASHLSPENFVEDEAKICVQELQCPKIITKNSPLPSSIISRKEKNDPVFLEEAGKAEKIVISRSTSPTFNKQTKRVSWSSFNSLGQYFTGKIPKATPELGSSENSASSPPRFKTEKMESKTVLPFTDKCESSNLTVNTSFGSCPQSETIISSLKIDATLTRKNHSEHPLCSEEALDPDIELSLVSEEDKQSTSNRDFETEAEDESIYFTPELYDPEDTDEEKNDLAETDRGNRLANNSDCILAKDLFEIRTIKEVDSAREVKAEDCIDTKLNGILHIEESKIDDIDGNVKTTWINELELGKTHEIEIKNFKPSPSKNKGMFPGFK

[4] = target: FLAG-HA epitope-tagged BRCA1 (human) (UniProt P38398); assay: as above

FANCD2 (endogenous) (from UniProt Q9BXW9 1-1451)
binding [1]: no binding

B1: FANCA (endogenous) (protein, UniProt O15360 1-1455)
chain: MSDSWVPNSASGQDPGGRRRAWAELLAGRVKREKYNPERAQKLKESAVRLLRSHQDLNALLLEVEGPLCKKLSLSKVIDCDSSEAYANHSSSFIGSALQDQASRLGVPVGILSAGMVASSVGQICTAPAETSHPVLLTVEQRKKLSSLLEFAQYLLAHSMFSRLSFCQELWKIQSSLLLEAVWHLHVQGIVSLQELLESHPDMHAVGSWLFRNLCCLCEQMEASCQHADVARAMLSDFVQMFVLRGFQKNSDLRRTVEPEKMPQVTVDVLQRMLIFALDALAAGVQEESSTHKIVRCWFGVFSGHTLGSVISTDPLKRFFSHTLTQILTHSPVLKASDAVQMQREWSFARTHPLLTSLYRRLFVMLSAEELVGHLQEVLETQEVHWQRVLSFVSALVVCFPEAQQLLEDWVARLMAQAFESCQLDSMVTAFLVVRQAALEGPSAFLSYADWFKASFGSTRGYHGCSKKALVFLFTFLSELVPFESPRYLQVHILHPPLVPGKYRSLLTDYISLAKTRLADLKVSIENMGLYEDLSSAGDITEPHSQALQDVEKAIMVFEHTGNIPVTVMEASIFRRPYYVSHFLPALLTPRVLPKVPDSRVAFIESLKRADKIPPSLYSTYCQACSAAEEKPEDAALGVRAEPNSAEEPLGQLTAALGELRASMTDPSQRDVISAQVAVISERLRAVLGHNEDDSSVEISKIQLSINTPRLEPREHMAVDLLLTSFCQNLMAASSVAPPERQGPWAALFVRTMCGRVLPAVLTRLCQLLRHQGPSLSAPHVLGLAALAVHLGESRSALPEVDVGPPAPGAGLPVPALFDSLLTCRTRDSLFFCLKFCTAAISYSLCKFSSQSRDTLCSCLSPGLIKKFQFLMFRLFSEARQPLSEEDVASLSWRPLHLPSADWQRAALSLWTHRTFREVLKEEDVHLTYQDWLHLELEIQPEADALSDTERQDFHQWAIHEHFLPESSASGGCDGDLQAACTILVNALMDFHQSSRSYDHSENSDLVFGGRTGNEDIISRLQEMVADLELQQDLIVPLGHTPSQEHFLFEIFRRRLQALTSGWSVAASLQRQRELLMYKRILLRLPSSVLCGSSFQAEQPITARCEQFFHLVNSEMRNFCSHGGALTQDITAHFFRGLLNACLRSRDPSLMVDFILAKCQTKCPLILTSALVWWPSLEPVLLCRWRRHCQSPLPRELQKLQEGRQFASDFLSPEAASPAPNPDWLSAAALHFAIQQVREENIRKQLKKLDCEREELLVFLFFFSLMGLLSSHLTSNSTTDLPKAFHVCAAILECLEKRKISWLALFQLTESDLRLGRLLLRVAPDQHTRLLPFAFYSLLSYFHEDAAIREEAFLHVAVDMYLKLVQLFVAGDTSTVSPPAGRSLELKGQGNPVELITKARLFLLQLIPRCPKKSFSHVAELLADRGDCDPEVSAALQSRQQAAPDADLSQEPHLF
binding [2]: binds

B2: V5-tagged human POLN (enzyme, UniProt Q7Z5Q5 1-900)
chain: MENYEALVGFDLCNTPLSSVAQKIMSAMHSGDLVDSKTWGKSTETMEVINKSSVKYSVQLEDRKTQSPEKKDLKSLRSQTSRGSAKLSPQSFSVRLTDQLSADQKQKSISSLTLSSCLIPQYNQEASVLQKKGHKRKHFLMENINNENKGSINLKRKHITYNNLSEKTSKQMALEEDTDDAEGYLNSGNSGALKKHFCDIRHLDDWAKSQLIEMLKQAAALVITVMYTDGSTQLGADQTPVSSVRGIVVLVKRQAEGGHGCPDAPACGPVLEGFVSDDPCIYIQIEHSAIWDQEQEAHQQFARNVLFQTMKCKCPVICFNAKDFVRIVLQFFGNDGSWKHVADFIGLDPRIAAWLIDPSDATPSFEDLVEKYCEKSITVKVNSTYGNSSRNIVNQNVRENLKTLYRLTMDLCSKLKDYGLWQLFRTLELPLIPILAVMESHAIQVNKEEMEKTSALLGARLKELEQEAHFVAGERFLITSNNQLREILFGKLKLHLLSQRNSLPRTGLQKYPSTSEAVLNALRDLHPLPKIILEYRQVHKIKSTFVDGLLACMKKGSISSTWNQTGTVTGRLSAKHPNIQGISKHPIQITTPKNFKGKEDKILTISPRAMFVSSKGHTFLAADFSQIELRILTHLSGDPELLKLFQESERDDVFSTLTSQWKDVPVEQVTHADREQTKKVVYAVVYGAGKERLAACLGVPIQEAAQFLESFLQKYKKIKDFARAAIAQCHQTGCVVSIMGRRRPLPRIHAHDQQLRAQAERQAVNFVVQGSAADLCKLAMIHVFTAVAASHTLTARLVAQIHDELLFEVEDPQIPECAALVRRTMESLEQVQALELQLQVPLKVSLSAGRSWGHLVPLQEAWGPPPGPCRTESPSNSLAAPGSPASTQPPPLHFSPSFCL
binding [3]: binds
binding [4]: binds

B3: HELQ (endogenous) (protein, UniProt Q8TDG4 1-1101)
chain: MDECGSRIRRRVSLPKRNRPSLGCIFGAPTAAELVPGDEGKEEEEMVAENRRRKTAGVLPVEVQPLLLSDSPECLVLGGGDTNPDLLRHMPTDRGVGDQPNDSEVDMFGDYDSFTENSFIAQVDDLEQKYMQLPEHKKHATDFATENLCSESIKNKLSITTIGNLTELQTDKHTENQSGYEGVTIEPGADLLYDVPSSQAIYFENLQNSSNDLGDHSMKERDWKSSSHNTVNEELPHNCIEQPQQNDESSSKVRTSSDMNRRKSIKDHLKNAMTGNAKAQTPIFSRSKQLKDTLLSEEINVAKKTVESSSNDLGPFYSLPSKVRDLYAQFKGIEKLYEWQHTCLTLNSVQERKNLIYSLPTSGGKTLVAEILMLQELLCCRKDVLMILPYVAIVQEKISGLSSFGIELGFFVEEYAGSKGRFPPTKRREKKSLYIATIEKGHSLVNSLIETGRIDSLGLVVVDELHMIGEGSRGATLEMTLAKILYTSKTTQIIGMSATLNNVEDLQKFLQAEYYTSQFRPVELKEYLKINDTIYEVDSKAENGMTFSRLLNYKYSDTLKKMDPDHLVALVTEVIPNYSCLVFCPSKKNCENVAEMICKFLSKEYLKHKEKEKCEVIKNLKNIGNGNLCPVLKRTIPFGVAYHHSGLTSDERKLLEEAYSTGVLCLFTCTSTLAAGVNLPARRVILRAPYVAKEFLKRNQYKQMIGRAGRAGIDTIGESILILQEKDKQQVLELITKPLENCYSHLVQEFTKGIQTLFLSLIGLKIATNLDDIYHFMNGTFFGVQQKVLLKEKSLWEITVESLRYLTEKGLLQKDTIYKSEEEVQYNFHITKLGRASFKGTIDLAYCDILYRDLKKGLEGLVLESLLHLIYLTTPYDLVSQCNPDWMIYFRQFSQLSPAEQNVAAILGVSESFIGKKASGQAIGKKVDKNVVNRLYLSFVLYTLLKETNIWTVSEKFNMPRGYIQNLLTGTASFSSCVLHFCEELEEFWVYRALLVELTKKLTYCVKAELIPLMEVTGVLEGRAKQLYSAGYKSLMHLANANPEVLVRTIDHLSRRQAKQIVSSAKMLLHEKAEALQEEVEELLRLPSDFPGAVASSTDKA
binding [1]: no binding
